The list shows only some results of the screen, not a fair sample: it is rich in T/C values a quarter to a half above the control, in often repeated tests (any T/C) and in doses without a T/C. Further doses and runs are listed elsewhere. T/C is the treated group as % of the vehicle group. Some entries give survivors of the animals treated and no T/C: the source holds a T/C of zero for them, seemingly a mark for toxic or unscored doses. Some survivor counts are full or nearly so, which does not show that the dose was tolerated: survival well below the control is almost never listed, so the zero probably covers shortened survival too. Survivors were counted at the toxicity check, usually on the fifth day, unless a day is given; later deaths do not show. Schedule codes are those of the source, taken here to give the interval after Q, in days (D) or hours (H), and the number of doses after X. Where survival is the endpoint, the PubChem record calls one and a half times the control and up active, and a quarter to a half above the control has no call in these data; cut-offs in other NCI protocols can differ. Some T/C values carry the count of animals alive at the toxicity check (mostly the fifth day); where none is given, no animal had died by that day. Some entries hold several experiments; their values stand side by side, smallest first. Brackets with × stand for listed records that agree. Some schedules carry Z or #; the key to these is not given.
System: CD2F1 mice, L1210 leukemia ip, survival T/C
Assay: NCI In Vivo Anticancer Drug Screen. Data for tumor model L1210 Leukemia (intraperitoneal) in CD2F1 (CDF1) mice
Conditions: T/C endpoint: mean survival time, higher T/C = longer survival
How it was run: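 Activity against a transplanted murine tumor was judged by comparing the compound group with a vehicle group. The outcome in the treated animals was divided by that in the controls.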

N[C@@H](Cc1ccc(N(CCCl)CCCl)cc1)C(=O)O
T/C (dose: 0.5 mg/kg/injection, schedule: Q01DX009 (ip), vehicle: Klucel (hydroxypropylcellulose) (HPC)): 111, 113 (2×), 116, 125 % of control [5 of 6 alive] | T/C (dose: 0.5 mg/kg/injection, schedule: Q01DX009 (ip), vehicle: saline, evaluated on day 30): 106, 128 (2×), 157 % of control | T/C (dose: 0.5 mg/kg/injection, schedule: Q01DX009 (ip), vehicle: saline, evaluated on day 45): 137 % of control | T/C (dose: 1.0 mg/kg/injection, schedule: Q01DX009 (ip), vehicle: Klucel (hydroxypropylcellulose) (HPC)): 119, 121, 127 (2×), 127 % of control [5 of 6 alive] | T/C (dose: 1.0 mg/kg/injection, schedule: Q01DX009 (ip), vehicle: saline, evaluated on day 30): 130, 136, 158, 197 % of control | T/C (dose: 1.0 mg/kg/injection, schedule: Q01DX009 (ip), vehicle: saline, evaluated on day 45): 132 % of control | T/C (dose: 1.0 mg/kg/injection, schedule: Q04DX003 (ip), vehicle: saline, evaluated on day 5): 127 % of control | T/C (dose: 1.0 mg/kg/injection, schedule: Q04DX003 (ip), vehicle: saline, evaluated on day 30): 131 and 143 % of control | T/C (dose: 1.0 mg/kg/injection, schedule: Q04DX003 (ip), vehicle: saline, evaluated on day 45): 130 % of control | T/C (dose: 1.0 mg/kg/injection, schedule: Q## X010 (ip), vehicle: saline): 136 % of control | T/C (dose: 1.25 mg/kg/injection, schedule: Q01DX009 (ip), vehicle: saline): 132 % of control | T/C (dose: 1.5 mg/kg/injection, schedule: Q01DX009 (ip), vehicle: Klucel (hydroxypropylcellulose) (HPC)): 133 % of control | T/C (dose: 1.5 mg/kg/injection, schedule: Q04DX003 (ip), vehicle: saline): 137 % of control | T/C (dose: 2.0 mg/kg/injection, schedule: Q01DX001 (ip), vehicle: DMSO): 131 % of control | T/C (dose: 2.0 mg/kg/injection, schedule: Q01DX001 (ip), vehicle: Klucel (hydroxypropylcellulose) (HPC)): 127 % of control | T/C (dose: 2.0 mg/kg/injection, schedule: Q01DX001 (ip), vehicle: saline, evaluated on day 30): 107, 117, 129 % of control | T/C (dose: 2.0 mg/kg/injection, schedule: Q01DX001 (ip), vehicle: saline, evaluated on day 45): 138 % of control | T/C (dose: 2.0 mg/kg/injection, schedule: Q01DX009 (ip), vehicle: Klucel (hydroxypropylcellulose) (HPC)): 136, 138, 142, 146, 148 % of control | T/C (dose: 2.0 mg/kg/injection, schedule: Q01DX009 (ip), vehicle: saline, evaluated on day 30): 105, 143, 155, 162, 163 % of control | T/C (dose: 2.0 mg/kg/injection, schedule: Q01DX009 (ip), vehicle: saline, evaluated on day 45): 161 % of control | T/C (dose: 2.0 mg/kg/injection, schedule: Q01DX009 (ip), vehicle: water): 133 % of control | T/C (dose: 2.0 mg/kg/injection, schedule: Q03DX003 (ip), vehicle: saline): 146 % of control | T/C (dose: 2.0 mg/kg/injection, schedule: Q04DX003 (ip), vehicle: saline, evaluated on day 5): 119, 132, 161 % of control | T/C (dose: 2.0 mg/kg/injection, schedule: Q04DX003 (ip), vehicle: saline, evaluated on day 30): 116, 125, 147, 157 % of control | T/C (dose: 2.0 mg/kg/injection, schedule: Q04DX003 (ip), vehicle: saline, evaluated on day 45): 150 % of control | T/C (dose: 2.0 mg/kg/injection, schedule: Q## X010 (ip), vehicle: saline): 137 % of control | T/C (dose: 2.0 mg/kg/injection, schedule: Q## X010 (oral), vehicle: saline): 126 % of control | T/C (dose: 2.5 mg/kg/injection, schedule: Q04DX003 (ip), vehicle: saline): 132 % of control | T/C (dose: 3.0 mg/kg/injection, schedule: Q04DX003 (ip), vehicle: saline): 144 % of control | T/C (dose: 4.0 mg/kg/injection, schedule: Q01DX001 (ip), vehicle: DMSO): 132 % of control | T/C (dose: 4.0 mg/kg/injection, schedule: Q01DX001 (ip), vehicle: Klucel (hydroxypropylcellulose) (HPC)): 126 % of control | T/C (dose: 4.0 mg/kg/injection, schedule: Q01DX001 (ip), vehicle: saline with Tween-80): 140 % of control | T/C (dose: 4.0 mg/kg/injection, schedule: Q01DX001 (ip), vehicle: saline, evaluated on day 30): 119, 124, 141 % of control | T/C (dose: 4.0 mg/kg/injection, schedule: Q01DX001 (ip), vehicle: saline, evaluated on day 45): 135 % of control | T/C (dose: 4.0 mg/kg/injection, schedule: Q01DX005 (oral), vehicle: saline): 141 % of control | T/C (dose: 4.0 mg/kg/injection, schedule: Q01DX009 (ip), vehicle: Klucel (hydroxypropylcellulose) (HPC)): 155, 158, 172, 182, 196 % of control | T/C (dose: 4.0 mg/kg/injection, schedule: Q01DX009 (ip), vehicle: saline, evaluated on day 30): 103, 175, 177, 178, 192 % of control | T/C (dose: 4.0 mg/kg/injection, schedule: Q01DX009 (ip), vehicle: saline, evaluated on day 45): 171 % of control | T/C (dose: 4.0 mg/kg/injection, schedule: Q04DX003 (ip), vehicle: saline, evaluated on day 5): 162, 170, 174, 230 % of control | T/C (dose: 4.0 mg/kg/injection, schedule: Q04DX003 (ip), vehicle: saline, evaluated on day 30): 108, 160, 184, 197 % of control | T/C (dose: 4.0 mg/kg/injection, schedule: Q04DX003 (ip), vehicle: saline, evaluated on day 45): 177 % of control | T/C (dose: 4.0 mg/kg/injection, schedule: Q## X010 (oral), vehicle: saline): 136 % of control [9 of 10 alive] | T/C (dose: 6.0 mg/kg/injection, schedule: Q01DX009 (ip), vehicle: Klucel (hydroxypropylcellulose) (HPC)): 146 % of control | survivor count (dose: 7.5 mg/kg/injection, schedule: Q01DX007 (ip), vehicle: saline with Tween-80): 5 of 6 | survivor count (dose: 7.5 mg/kg/injection, schedule: Q01DX009 (ip), vehicle: saline with Tween-80): 3 of 6 | T/C (dose: 8.0 mg/kg/injection, schedule: Q01DX001 (ip), vehicle: Klucel (hydroxypropylcellulose) (HPC)): 145 % of control | T/C (dose: 8.0 mg/kg/injection, schedule: Q01DX001 (ip), vehicle: other): 133 % of control | T/C (dose: 8.0 mg/kg/injection, schedule: Q01DX001 (ip), vehicle: saline, evaluated on day 30): 140, 151, 162, 168 % of control | T/C (dose: 8.0 mg/kg/injection, schedule: Q01DX001 (ip), vehicle: saline, evaluated on day 45): 271 % of control | T/C (dose: 8.0 mg/kg/injection, schedule: Q01DX005 (oral), vehicle: saline): 140 % of control | T/C (dose: 8.0 mg/kg/injection, schedule: Q01DX007 (ip), vehicle: saline): 128 % of control | T/C (dose: 8.0 mg/kg/injection, schedule: Q01DX009 (ip), vehicle: Klucel (hydroxypropylcellulose) (HPC)): 90 [5 of 6 alive], 112, 125 (2×), 133 % of control | T/C (dose: 8.0 mg/kg/injection, schedule: Q01DX009 (ip), vehicle: saline, evaluated on day 30): 103, 108, 113, 130 % of control | T/C (dose: 8.0 mg/kg/injection, schedule: Q01DX009 (ip), vehicle: saline, evaluated on day 45): 128 % of control | survivor count (dose: 8.0 mg/kg/injection, schedule: Q01DX009 (ip), vehicle: saline): 6 of 6

From PubChem BioAssay AID256 (DTP/NCI, 2004)
